PubChem BioAssay AID1224827 – NIAID – 2016
Here is a random part of about 3,800 reagents tested. Of all reagents, about 2,200 (57%) got an active call. 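Active means a strong reporter change in either direction; calls are per siRNA, not per gene; qiagen siRNAs gave weaker effects.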 Unmarked entries are inactive. Reagents against one gene are numbered here.

- Aim: 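Confirm genes whose knock-down changes LPS-driven TNF promoter activity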 (follow-up of hits)
- System: RAW264.7 G9 mouse macrophage reporter clone
- Knock-down reagent: single siRNA against mouse genes, 100 nM siRNA
- Time to read-out: siRNA for 2 days, then LPS about 16 h
- Challenge: bacterial lipopolysaccharide (LPS), 10 ng/ml, cells fixed after overnight (about 16 h) stimulation
- Measured: 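Imaged nuclear TNF reporter intensity, background removed, scaled per plate and to non-targeting control wells, as z-scores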
- Reading the numbers: TNF reporter z-score, mean and TNF reporter z-score: higher = stronger Tnf promoter reporter signal; gene median z, three same-vendor siRNAs: higher = stronger Tnf reporter signal for the gene
- Call rule: 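An siRNA is called active when its mean z-score over replicates is at least +2 or at most -2; control wells get no call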

gene symbol	siRNA no.	TNF reporter z-score, mean	gene median z, three same-vendor siRNAs	TNF reporter z-score, repeat 1	TNF reporter z-score, repeat 2
P2ry4	1	3.06 (active)	1.36	1.08	5.04
P2ry4	2	2.46 (active)	1.36	1.65	3.28
P2ry4	3	-3.71 (active)	1.36	-2.74	-4.68
P2ry4	4	3.31 (active)	-2.28	5.98	0.64
P2ry4	5	-2.28 (active)	-2.28	-2.72	-1.85
P2ry4	6	-4.15 (active)	-2.28	-5.19	-3.11
Lrrc19	1	-2.62 (active)	-2.63	-1.97	-3.27
Lrrc19	2	-2.63 (active)	-2.63	-2.22	-3.05
Lrrc19	3	-3.24 (active)	-2.63	-1.9	-4.58
Bend6	1	4.22 (active)	-0.995	3.85	4.6
Bend6	2	-0.995	-0.995	-1.73	-0.256
Bend6	3	-4.79 (active)	-0.995	-4.95	-4.63
Bend6	4	4.4 (active)	1.21	6.78	2.02
Bend6	5	4.42 (active)	1.21	8.43	0.404
Bend6	6	-1.03	1.21	-0.84	-1.21
Or5w15	1	-1.64	-2.97	-2.59	-0.686
Or5w15	2	-2.84 (active)	-2.97	-2.33	-3.35
Or5w15	3	-5.46 (active)	-2.97	-4.79	-6.13
Or5w15	4	2.3 (active)	0.688	3.93	0.681
Or5w15	5	1.33	0.688	1.97	0.695
Or5w15	6	-0.808	0.688	-0.792	-0.823
Neu1	1	-3.09 (active)	-3.73	-2.63	-3.55
Neu1	2	-4.19 (active)	-3.73	-3.25	-5.12
Neu1	3	-4.65 (active)	-3.73	-3.91	-5.38
Neu1	4	2.85 (active)	1.39	5.02	0.678
Neu1	5	1.09	1.39	2.71	-0.525
Neu1	6	0.158	1.39	2.09	-1.78

Entries above whose target name begins with P or p:
gene symbol	siRNA no.	TNF reporter z-score, mean	gene median z, three same-vendor siRNAs	TNF reporter z-score, repeat 1	TNF reporter z-score, repeat 2
P2ry4	1	3.06 (active)	1.36	1.08	5.04
P2ry4	2	2.46 (active)	1.36	1.65	3.28
P2ry4	3	-3.71 (active)	1.36	-2.74	-4.68
P2ry4	4	3.31 (active)	-2.28	5.98	0.64
P2ry4	5	-2.28 (active)	-2.28	-2.72	-1.85
P2ry4	6	-4.15 (active)	-2.28	-5.19	-3.11

The listing continues.
gene symbol	siRNA no.	TNF reporter z-score, mean	gene median z, three same-vendor siRNAs	TNF reporter z-score, repeat 1	TNF reporter z-score, repeat 2
Sgpl1	1	2.43 (active)	-1.19	1.55	3.32
Sgpl1	2	-1.19	-1.19	-1.06	-1.31
Sgpl1	3	-2.34 (active)	-1.19	-1.86	-2.82
Sgpl1	4	1.74	0.599	3.48	0.00111
Sgpl1	5	0.819	0.599	1.81	-0.169
Sgpl1	6	0.211	0.599	1.2	-0.774
Krt6b	1	4.27 (active)	0.844	6.46	2.08
Krt6b	2	0.782	0.844	2.33	-0.762
Krt6b	3	-1.11	0.844	-0.391	-1.83
Pepf	1	10.4 (active)	-2.18	9.13	11.6
Pepf	2	-2.71 (active)	-2.18	-4.25	-1.17
Pepf	3	-3.55 (active)	-2.18	-3.2	-3.89
Pepf	4	3.74 (active)	-2.81	6.58	0.904
Pepf	5	-2.92 (active)	-2.81	-2.42	-3.41
Pepf	6	-3.84 (active)	-2.81	-4.48	-3.2
Prelid3a	1	8.3 (active)	-3.62	7.25	9.35
Prelid3a	2	-3.62 (active)	-3.62	-3.65	-3.6
Prelid3a	3	-4.76 (active)	-3.62	-4.49	-5.03
Prelid3a	4	0.488	-0.936	1.23	-0.256
Prelid3a	5	0.175	-0.936	1.96	-1.62
Prelid3a	6	-2.14 (active)	-0.936	-1.74	-2.53
Supt20	1	-0.189	-3.16	-1.25	0.873
Supt20	2	-3.59 (active)	-3.16	-4.46	-2.72
Supt20	3	-3.82 (active)	-3.16	-3.6	-4.04
Supt20	4	2.53 (active)	-2.98	5.03	0.0287
Supt20	5	-2.98 (active)	-2.98	-3.4	-2.57
Supt20	6	-4.22 (active)	-2.98	-4.54	-3.89
Inka2	1	-0.814	-4.5	-1.6	-0.0289
Inka2	2	-4.5 (active)	-4.5	-4.65	-4.34
Inka2	3	-5.95 (active)	-4.5	-5.66	-6.25
Inka2	4	4.44 (active)	0.549	8.14	0.75
Inka2	5	-0.0428	0.549	0.347	-0.433
Inka2	6	0.0429	0.549	1.65	-1.56
